# Results of single-concentration screens

Sequences of proteins named here, by UniProt entry; tags and fusion partners are left off. Residues count along the entry.
UniProt P9WFT3, whole entry: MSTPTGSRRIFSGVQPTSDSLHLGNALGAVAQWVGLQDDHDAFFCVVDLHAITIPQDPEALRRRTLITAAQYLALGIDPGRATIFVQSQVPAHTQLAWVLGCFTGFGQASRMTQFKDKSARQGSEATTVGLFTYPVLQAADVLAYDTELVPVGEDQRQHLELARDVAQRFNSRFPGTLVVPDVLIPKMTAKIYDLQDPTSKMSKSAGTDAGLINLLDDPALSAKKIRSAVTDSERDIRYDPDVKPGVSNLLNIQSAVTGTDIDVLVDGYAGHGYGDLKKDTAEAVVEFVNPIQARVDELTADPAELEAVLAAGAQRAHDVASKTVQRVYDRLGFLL
UniProt P9WPC5, whole entry: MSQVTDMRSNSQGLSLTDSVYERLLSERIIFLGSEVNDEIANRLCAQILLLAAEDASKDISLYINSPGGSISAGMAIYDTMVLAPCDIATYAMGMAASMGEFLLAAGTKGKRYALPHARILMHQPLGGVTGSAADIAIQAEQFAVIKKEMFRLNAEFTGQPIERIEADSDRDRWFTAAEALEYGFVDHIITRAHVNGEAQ
UniProt P9WPC3, whole entry partner: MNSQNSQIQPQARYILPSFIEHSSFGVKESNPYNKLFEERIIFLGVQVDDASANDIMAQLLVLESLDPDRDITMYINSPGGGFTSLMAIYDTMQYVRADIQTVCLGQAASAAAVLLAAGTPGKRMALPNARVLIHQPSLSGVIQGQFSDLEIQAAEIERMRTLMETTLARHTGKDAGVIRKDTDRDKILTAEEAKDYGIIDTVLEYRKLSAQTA
UniProt I6X8D2, whole entry: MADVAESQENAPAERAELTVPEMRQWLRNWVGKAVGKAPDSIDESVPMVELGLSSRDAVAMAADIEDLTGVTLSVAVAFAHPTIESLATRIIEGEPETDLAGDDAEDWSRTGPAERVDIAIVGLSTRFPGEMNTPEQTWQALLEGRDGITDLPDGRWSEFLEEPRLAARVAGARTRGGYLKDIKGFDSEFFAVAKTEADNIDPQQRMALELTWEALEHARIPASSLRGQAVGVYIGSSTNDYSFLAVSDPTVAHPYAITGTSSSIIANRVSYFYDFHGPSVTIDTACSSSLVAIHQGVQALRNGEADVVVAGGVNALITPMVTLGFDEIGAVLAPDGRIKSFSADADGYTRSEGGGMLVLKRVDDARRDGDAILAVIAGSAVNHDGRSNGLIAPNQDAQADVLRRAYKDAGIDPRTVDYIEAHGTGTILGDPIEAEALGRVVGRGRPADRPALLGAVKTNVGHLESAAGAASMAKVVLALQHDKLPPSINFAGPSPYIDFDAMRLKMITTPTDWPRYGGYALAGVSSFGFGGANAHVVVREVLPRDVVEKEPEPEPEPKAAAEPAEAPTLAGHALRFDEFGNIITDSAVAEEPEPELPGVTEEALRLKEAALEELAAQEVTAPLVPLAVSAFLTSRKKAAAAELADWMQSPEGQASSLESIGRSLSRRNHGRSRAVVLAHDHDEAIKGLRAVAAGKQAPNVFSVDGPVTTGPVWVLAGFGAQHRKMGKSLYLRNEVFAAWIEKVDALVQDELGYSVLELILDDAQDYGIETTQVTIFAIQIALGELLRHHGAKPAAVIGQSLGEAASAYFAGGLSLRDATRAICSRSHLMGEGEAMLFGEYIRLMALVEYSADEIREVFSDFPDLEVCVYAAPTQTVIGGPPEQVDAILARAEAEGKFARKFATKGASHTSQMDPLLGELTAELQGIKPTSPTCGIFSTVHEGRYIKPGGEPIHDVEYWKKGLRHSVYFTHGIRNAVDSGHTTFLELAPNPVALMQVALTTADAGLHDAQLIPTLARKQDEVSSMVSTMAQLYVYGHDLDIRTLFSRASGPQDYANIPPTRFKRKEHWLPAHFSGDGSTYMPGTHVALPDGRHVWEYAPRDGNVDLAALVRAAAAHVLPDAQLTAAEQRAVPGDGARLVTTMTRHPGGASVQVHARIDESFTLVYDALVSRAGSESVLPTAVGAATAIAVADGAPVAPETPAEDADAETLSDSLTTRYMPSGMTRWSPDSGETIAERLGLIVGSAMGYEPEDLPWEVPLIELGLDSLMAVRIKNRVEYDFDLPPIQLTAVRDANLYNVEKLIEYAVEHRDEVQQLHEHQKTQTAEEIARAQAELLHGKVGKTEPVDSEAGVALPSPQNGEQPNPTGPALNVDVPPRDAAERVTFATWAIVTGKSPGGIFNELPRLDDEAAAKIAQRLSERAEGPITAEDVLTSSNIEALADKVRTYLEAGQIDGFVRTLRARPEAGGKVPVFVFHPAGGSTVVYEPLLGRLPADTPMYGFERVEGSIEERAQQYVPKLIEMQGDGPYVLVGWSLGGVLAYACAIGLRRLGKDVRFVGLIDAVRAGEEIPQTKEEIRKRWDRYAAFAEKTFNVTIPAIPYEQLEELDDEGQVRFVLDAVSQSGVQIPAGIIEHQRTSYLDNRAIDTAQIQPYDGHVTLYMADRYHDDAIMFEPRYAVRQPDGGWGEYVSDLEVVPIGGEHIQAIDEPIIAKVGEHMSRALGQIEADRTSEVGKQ
UniProt Q8IDJ8, 1-583: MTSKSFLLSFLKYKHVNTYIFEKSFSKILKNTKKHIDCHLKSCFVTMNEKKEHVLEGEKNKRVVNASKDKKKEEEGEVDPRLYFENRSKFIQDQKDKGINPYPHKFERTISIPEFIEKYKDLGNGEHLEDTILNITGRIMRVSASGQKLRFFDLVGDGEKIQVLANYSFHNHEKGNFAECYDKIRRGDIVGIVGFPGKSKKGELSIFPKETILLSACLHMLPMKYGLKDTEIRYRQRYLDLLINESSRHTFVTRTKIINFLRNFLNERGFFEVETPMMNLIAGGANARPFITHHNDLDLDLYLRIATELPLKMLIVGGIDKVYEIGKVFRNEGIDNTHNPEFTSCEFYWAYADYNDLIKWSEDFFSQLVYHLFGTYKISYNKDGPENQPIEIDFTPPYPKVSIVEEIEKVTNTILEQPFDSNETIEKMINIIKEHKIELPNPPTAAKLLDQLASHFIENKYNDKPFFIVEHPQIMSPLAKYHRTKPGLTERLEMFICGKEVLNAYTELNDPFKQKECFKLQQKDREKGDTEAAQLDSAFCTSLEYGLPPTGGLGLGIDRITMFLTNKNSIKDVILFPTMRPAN

Source: ChEMBL document CHEMBL3988442, “University of Dundee, Small-Polar-MMV Screening Library” (2021).

The filed quantity is “Percent Effect” (%).
The record does not define 0% and 100%; most values in the screen are far below 50% and negative numbers occur (in some assays of this library far below -100).
This is an unselected part of the compounds tested.
A dash means the value is not listed here; it may have been measured.

MtTrpRS: 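Enzyme assay of tryptophanyl-tRNA synthetase; the read-out is not stated. Target: Tryptophan-tRNA ligase, Mycobacterium tuberculosis (UniProt P9WFT3). Concentration: 10 µM. Direction is not recorded; retested compounds ran higher, which suggests that high means inhibition. About 65,000 compounds were tested under these conditions; 0.098% (about 64) showed 50% or more at least once.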
ClpP1P2: 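Protease assay of ClpP1P2, read by the AMC dye that it sets free. Target: ClpP1P2, Mycobacterium tuberculosis (UniProt P9WPC5 and UniProt P9WPC3). Compounds at 50 µM. Higher reads as stronger inhibition, judged from the few compounds that gave an IC50. Most other retested compounds had strongly negative values. Of about 69,000 compounds tested this way, about 10 (0.015%) reached 50% or more in at least one test.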
Pks13 thioesterase: 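Enzyme assay of the thioesterase domain of polyketide synthase 13; the read-out is not stated. Target: Polyketide synthase Pks13, Mycobacterium tuberculosis (UniProt I6X8D2). Concentration: 30 µM. Higher reads as stronger inhibition (inferred from which compounds were picked for retests). Size under these conditions: about 67,000 compounds, about 300 of them at 50% or above in at least one test.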
PfKRS1: 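Enzyme assay of the cytosolic lysyl-tRNA synthetase in 384-well plates, read by luminescence. Target: Lysine-tRNA ligase, Plasmodium falciparum 3D7 (UniProt Q8IDJ8). Compounds at 30 µM. Direction is inferred from only a few compounds that gave an IC50; most scored high, so higher reads as stronger inhibition. About 69,000 compounds were tested under these conditions; 0.071% (about 49) showed 50% or more at least once.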

| compound | MtTrpRS | ClpP1P2 | Pks13 thioesterase | PfKRS1 |
|---|---|---|---|---|
| `Cc1ccc(CNc2cc3c(cc2Cl)NC(=O)CO3)cc1C` | 1.924 | -8.235 | 2.147 | 0.4757 |
| `CC(=O)N1CC2(CCCN2Cc2ccc(Cl)cc2)Cc2ccccc21` (configuration not stated) | 4.235 | 22.76 | -15.25 | -2.638 |
| `CCc1nc(CN2CCCN(c3ncnc4ccsc34)CC2)no1` | -1.575 | -5.983 | -10.78 | 5.728 |
| `CC(C)(C)OC(=O)N1CCN(C(=O)c2cnn3c2OCCC3)CC1` | 7.777 | -7.473 | -3.256 | 4.291 |
| `O=C(Cc1ccc(F)cc1)NCCc1ccoc1` | -3.945 | 2.102 | -17.63 | 0.7558 |
| `Cc1csc(CN(C)C(=O)Nc2cnn(CC3CCCO3)c2)n1` (configuration not stated) | -0.6583 | 19.31 | -12.91 | -1.931 |
| `CC1CN=C(N2CCN(C(=O)Nc3nc(-c4ccccc4)ns3)CC2)S1` (configuration not stated) | -5.197 | 0.4056 | -0.99 | 2.145 |
| `CCOc1ccc2[nH]c3c(N(C)CC4OCCO4)ncnc3c2c1` | -0.5663 | -17.7 | 2.949 | -0.5051 |
| `Cc1cc(CS(=O)(=O)NC2CCCc3ccccc32)on1` (configuration not stated) | -2.457 | 6.586 | -28.29 | -0.1553 |
| `Cc1cccc(CN2CCC3(CCN(c4ccccn4)C3)C2=O)c1` (configuration not stated) | -1.908 | 9.078 | 9.355 | 2.932 |
| `CCN1CCN(CCCNc2ncccn2)CC1` | -0.9213 | 0.7094 | -10.14 | 3.85 |
| `CN(C)C[C@]12COC[C@H]1CN(Cc1ccc3ccccc3n1)C2` | -6.132 | 4.071 | -18.17 | 2.213 |
| `O=C(CC1CC1)NCc1cn2c(n1)CN(C(=O)C1CCOCC1)CC2` | -4.198 | 11.12 | -23.53 | 2.322 |
| `Cc1cc(CN2CCN(C(=O)Cc3ccccc3F)CC2)on1` | 1.975 | 15.36 | -13.6 | -2.239 |
| `COCCS(=O)(=O)NCC(C)c1cccc(C)c1` (configuration not stated) | 2.948 | 0.8504 | -20.82 | 0.6214 |
| `Cc1oc(C(=O)O)cc1S(=O)(=O)Nc1cc(F)ccc1F` | 18.01 | -16.5 | -15.1 | -1.381 |
| `CN(C)CCN1CCC2(CC1)CN(c1cccnc1)C(=O)CO2` | -0.7846 | 14.72 | -23.41 | 10.3 |
| `Cc1noc(C(C)N2CCN(Cc3ccco3)CC2)n1` (configuration not stated) | -5.834 | -0.1968 | -0.2317 | -0.6747 |
| `CN1CCN(c2ncccn2)CC(C(=O)N(C)C)C1` (configuration not stated) | -5.567 | -0.1223 | 7.627 | -1.759 |
| `CSc1ccc(C(=O)N2CC(=O)N(Cc3ccccc3)CC(O)C2)cc1` (configuration not stated) | - | 2.191 | 2.321 | 8.483 |
| `CC(c1ccon1)N(C)Cc1cc(O)c2cc(F)ccc2n1` (configuration not stated) | -5.057 | 0.4294 | -50.31 | 1.361 |
| `CC(=O)N1CC[C@H]2[C@H](C[C@@H](CN3CCCC3)N2c2nccs2)C1` | - | 1.865 | 5.965 | 2.214 |
| `Cc1cnn(CC2CCCN2CC(=O)Nc2cc(C)nn2C)c1` (configuration not stated) | 1.687 | -9.114 | -6.726 | 2.207 |
| `O=C(c1cc(COc2ccc3c(c2)OCO3)[nH]n1)N1CCCC(O)C1` (configuration not stated) | -1.347 | -9.925 | -21.99 | 3.795 |
| `CC(C)NC(=O)O[C@H]1COCCN(c2nc3ccccc3s2)C1` | -2.786 | -1.3 | -19.07 | 4.44 |
| `CCOc1ccc(CN2C(=O)CC(C)(C)C2=O)nc1` | -3.067 | 2.767 | -7.623 | 2.641 |
| `CCc1c(-c2ccccc2)nc2c(c(C)c(C)n2CCN(C)C)c1N` | -0.7282 | -7.818 | -9.895 | -0.1057 |
| `COCCCN(C)S(=O)(=O)c1ccc(Cl)cc1C#N` | 0.7947 | -5.058 | -1.943 | -0.4414 |
| `CCc1ncncc1C(=O)N1CCCN(Cc2ccc(C)cc2)CC1` | 1.072 | -5.03 | -17.3 | -3.998 |
| `C[C@@H]1CN(C(=O)c2cccn2C)C[C@]12CCN(c1ccsc1)C2=O` | -2.502 | 1.512 | 5.184 | 0.7389 |
| `COc1ccccc1C(O)CNc1c(C#N)c(=O)n(C)c(=O)n1C` (configuration not stated) | -2.407 | -16.58 | -15.75 | -0.8024 |
| `CCCS(=O)(=O)N1CCOC2(CCCN(c3ncc(F)cn3)C2)C1` (configuration not stated) | 1.098 | 1.41 | -10.85 | 4.377 |
| `COc1ccc(CCNC(=O)C(C)Nc2cccc(C)c2C)cc1` (configuration not stated) | -0.000009 | 6.684 | 10.42 | 2.639 |
| `COC(=O)c1ccc(C)c(N2CCNC2=O)c1` | -3.86 | -15.58 | -15.41 | 4.192 |
| `CC(C)c1cc(NCc2csc(N(C)C)n2)nc(N)n1` | 1.563 | -2.406 | -1.399 | 6.467 |
| `CCn1ncc(CN2CCc3nc(-c4cccnc4)nc(O)c3C2)c1C` | - | 5.68 | 11.92 | -2.529 |
| `O=C1CCC2(CCCN(C(=O)NCc3ccccc3)CC2)N1` (configuration not stated) | -11.05 | -5.742 | -28.38 | 4.346 |
| `CN1CCC(N(Cc2ccccc2)C(=O)c2ccn3cncc3c2)CC1` | -4.369 | -43.45 | 17.74 | -0.139 |
| `CCCc1nc(NCC(=O)N2CCOCC2)c2c(n1)c(C)nn2CC` | -1.425 | 11.27 | 18.17 | -7.551 |

3 of the entries, repeated:

compound,MtTrpRS,ClpP1P2,Pks13 thioesterase,PfKRS1
Cc1ccc(CNc2cc3c(cc2Cl)NC(=O)CO3)cc1C,1.924,-8.235,2.147,0.4757
C[C@@H]1CN(C(=O)c2cccn2C)C[C@]12CCN(c1ccsc1)C2=O,-2.502,1.512,5.184,0.7389
COCCS(=O)(=O)NCC(C)c1cccc(C)c1 (configuration not stated),2.948,0.8504,-20.82,0.6214